The target in test [1] is human fibrinogen (human) (UniProt P02671). Kind of test: ELISA; the same inhibition ELISA: the pair that is blocked, Efb in solution on coated human fibrinogen; both purified. (An ELISA detects its analyte on a solid surface through an enzyme-linked reagent.)
The target in test [2] is extracellular fibrinogen binding protein (Staphylococcus aureus) (UniProt A6QG59). In words: ELISA; only the target purified.
The target is the same in test [3]. In words: pull-down; only the target purified.

Chains of the proteins cited; added tags and fusions are not shown. Lines headed by an entry give the natural chain unless they say otherwise; changes in a name come on top. Residues count along the entry.
UniProt P02671: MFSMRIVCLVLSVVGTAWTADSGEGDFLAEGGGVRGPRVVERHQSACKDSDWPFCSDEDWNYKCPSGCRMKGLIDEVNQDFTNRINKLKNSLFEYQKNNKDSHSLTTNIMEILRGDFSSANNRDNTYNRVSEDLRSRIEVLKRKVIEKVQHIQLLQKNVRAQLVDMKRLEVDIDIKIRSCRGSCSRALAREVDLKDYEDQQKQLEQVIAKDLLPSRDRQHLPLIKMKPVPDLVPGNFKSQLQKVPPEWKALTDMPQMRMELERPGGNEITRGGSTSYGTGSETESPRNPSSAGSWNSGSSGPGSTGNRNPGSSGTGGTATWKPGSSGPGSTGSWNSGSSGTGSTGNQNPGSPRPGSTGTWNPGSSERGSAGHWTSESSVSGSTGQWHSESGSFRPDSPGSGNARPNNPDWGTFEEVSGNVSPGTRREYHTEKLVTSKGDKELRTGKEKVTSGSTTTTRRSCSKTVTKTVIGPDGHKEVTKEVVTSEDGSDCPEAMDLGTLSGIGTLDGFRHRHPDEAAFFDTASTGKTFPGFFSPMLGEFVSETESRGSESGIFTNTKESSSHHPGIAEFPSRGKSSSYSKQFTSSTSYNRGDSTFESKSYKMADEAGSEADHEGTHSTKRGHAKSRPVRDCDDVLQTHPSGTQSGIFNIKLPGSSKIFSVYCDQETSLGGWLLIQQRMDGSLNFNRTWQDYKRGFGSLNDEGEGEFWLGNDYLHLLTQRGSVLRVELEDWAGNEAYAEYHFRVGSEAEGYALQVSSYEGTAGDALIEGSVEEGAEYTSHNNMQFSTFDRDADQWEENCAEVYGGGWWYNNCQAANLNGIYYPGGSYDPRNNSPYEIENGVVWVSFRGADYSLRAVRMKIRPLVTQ
UniProt A6QG59, residues 30-165: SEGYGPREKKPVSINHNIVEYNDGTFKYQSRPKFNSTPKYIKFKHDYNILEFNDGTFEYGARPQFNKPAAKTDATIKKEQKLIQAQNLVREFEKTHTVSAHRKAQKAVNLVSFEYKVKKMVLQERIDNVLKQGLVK
UniProt E9PV24: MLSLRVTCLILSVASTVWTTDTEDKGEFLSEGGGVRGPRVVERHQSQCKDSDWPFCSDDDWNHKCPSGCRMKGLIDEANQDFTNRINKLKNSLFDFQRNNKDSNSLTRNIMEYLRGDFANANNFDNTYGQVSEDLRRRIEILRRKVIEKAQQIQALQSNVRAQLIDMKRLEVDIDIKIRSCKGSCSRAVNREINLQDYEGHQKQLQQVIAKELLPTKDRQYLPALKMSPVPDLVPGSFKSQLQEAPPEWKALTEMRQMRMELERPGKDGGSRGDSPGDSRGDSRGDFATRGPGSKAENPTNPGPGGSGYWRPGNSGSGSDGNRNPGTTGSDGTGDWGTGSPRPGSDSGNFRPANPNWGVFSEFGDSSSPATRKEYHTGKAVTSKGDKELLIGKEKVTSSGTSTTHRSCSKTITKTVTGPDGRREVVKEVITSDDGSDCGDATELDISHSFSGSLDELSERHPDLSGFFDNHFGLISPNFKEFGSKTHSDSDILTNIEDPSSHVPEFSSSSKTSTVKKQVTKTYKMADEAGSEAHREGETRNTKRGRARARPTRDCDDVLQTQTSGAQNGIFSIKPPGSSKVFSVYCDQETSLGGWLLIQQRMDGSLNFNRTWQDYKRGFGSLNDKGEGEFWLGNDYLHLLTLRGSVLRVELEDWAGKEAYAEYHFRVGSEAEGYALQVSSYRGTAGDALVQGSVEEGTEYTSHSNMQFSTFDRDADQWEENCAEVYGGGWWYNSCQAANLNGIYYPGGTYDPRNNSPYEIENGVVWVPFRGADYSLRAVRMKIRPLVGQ
UniProt Q8K0E8: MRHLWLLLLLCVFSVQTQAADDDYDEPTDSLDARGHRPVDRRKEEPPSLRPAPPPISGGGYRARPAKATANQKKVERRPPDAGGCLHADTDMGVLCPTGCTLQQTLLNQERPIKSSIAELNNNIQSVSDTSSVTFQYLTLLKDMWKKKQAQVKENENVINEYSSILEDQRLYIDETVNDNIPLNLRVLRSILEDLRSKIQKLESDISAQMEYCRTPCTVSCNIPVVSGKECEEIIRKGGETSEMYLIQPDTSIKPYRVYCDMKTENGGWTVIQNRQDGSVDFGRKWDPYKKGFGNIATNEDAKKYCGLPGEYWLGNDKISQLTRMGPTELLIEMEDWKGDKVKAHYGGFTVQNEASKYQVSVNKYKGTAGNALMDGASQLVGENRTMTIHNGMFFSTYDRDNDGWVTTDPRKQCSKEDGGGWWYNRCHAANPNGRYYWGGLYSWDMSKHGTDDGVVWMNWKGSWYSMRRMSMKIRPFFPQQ
UniProt Q8VCM7: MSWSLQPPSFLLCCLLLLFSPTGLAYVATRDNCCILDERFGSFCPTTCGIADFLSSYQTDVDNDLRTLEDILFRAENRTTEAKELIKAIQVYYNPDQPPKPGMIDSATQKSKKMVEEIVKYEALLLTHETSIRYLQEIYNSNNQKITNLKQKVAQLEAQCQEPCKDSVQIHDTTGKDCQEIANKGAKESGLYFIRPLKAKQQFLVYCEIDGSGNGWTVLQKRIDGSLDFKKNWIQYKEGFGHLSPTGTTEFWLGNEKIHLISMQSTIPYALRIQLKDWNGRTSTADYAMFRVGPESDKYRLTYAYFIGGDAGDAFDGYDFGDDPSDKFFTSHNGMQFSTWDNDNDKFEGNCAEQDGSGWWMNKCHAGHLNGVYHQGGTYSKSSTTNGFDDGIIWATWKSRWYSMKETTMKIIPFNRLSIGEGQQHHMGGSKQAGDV
UniProt P02675: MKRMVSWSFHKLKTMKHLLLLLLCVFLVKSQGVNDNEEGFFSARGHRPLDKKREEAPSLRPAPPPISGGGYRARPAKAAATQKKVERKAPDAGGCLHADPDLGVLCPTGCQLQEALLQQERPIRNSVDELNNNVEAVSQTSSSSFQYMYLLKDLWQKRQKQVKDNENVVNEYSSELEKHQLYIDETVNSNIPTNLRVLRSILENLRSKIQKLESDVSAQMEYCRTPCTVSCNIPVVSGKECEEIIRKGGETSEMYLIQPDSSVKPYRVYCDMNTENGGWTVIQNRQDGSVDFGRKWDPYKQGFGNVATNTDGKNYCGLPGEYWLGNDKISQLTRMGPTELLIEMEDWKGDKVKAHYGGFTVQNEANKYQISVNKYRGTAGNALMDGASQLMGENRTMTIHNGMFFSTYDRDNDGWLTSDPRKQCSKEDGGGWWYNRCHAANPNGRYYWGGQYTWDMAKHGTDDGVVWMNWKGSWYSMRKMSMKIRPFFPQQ
UniProt P02679: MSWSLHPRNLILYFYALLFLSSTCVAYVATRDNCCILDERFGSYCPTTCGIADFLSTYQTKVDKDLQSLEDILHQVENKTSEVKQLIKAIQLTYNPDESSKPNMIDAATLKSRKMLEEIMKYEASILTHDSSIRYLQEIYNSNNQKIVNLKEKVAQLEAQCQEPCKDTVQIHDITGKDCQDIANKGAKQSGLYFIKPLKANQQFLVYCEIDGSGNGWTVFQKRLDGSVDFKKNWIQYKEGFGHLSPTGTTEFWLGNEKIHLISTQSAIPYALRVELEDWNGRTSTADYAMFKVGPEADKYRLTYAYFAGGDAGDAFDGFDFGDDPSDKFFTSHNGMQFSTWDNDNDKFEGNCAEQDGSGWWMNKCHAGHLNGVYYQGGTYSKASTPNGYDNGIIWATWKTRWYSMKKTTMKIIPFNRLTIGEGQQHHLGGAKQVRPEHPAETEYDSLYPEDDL

These are yes or no findings as the source states them, for the method shown. For some assays here: Binding seen in cells or lysates may run through a third protein. Some binding calls cover weakened binding; strength is not graded here.

Take “extracellular fibrinogen binding protein (from UniProt A6QG59 30-165)”: the binding result in test [1] was “binds”.
Turning to “fibrinogen of mouse plasma (from UniProt E9PV24;Q8K0E8;Q8VCM7)”, the binding result in test [2] and in test [3] was “binds” in each case.
As to “human fibrinogen (from UniProt P02671;P02675;P02679)”, the binding result in test [2] and in test [3] was “binds” throughout.

The record behind these values is PMC5404189.
